Source: the supplement of paper PMC5949888
Most values lie at the floor of the assay. Slopes are relative: functional sequences can read slightly below zero.

Each substance was assayed on Saccharomyces cerevisiae PS128 hsf1 delta, HSF1(1-493) fusion (assay: growth estimate (transactivation domain function in HSF1 fusion, heat-shock survival) (a.u. (slope of normalised read count over time)); higher = stronger growth at 37°C, i.e. more transactivation activity). Details: library: random library.

Substance | growth estimate
TVAA | < -0.25
TVAGSELWPEPRNCNK | < -0.25
TVC | < -0.25
TVCKVLREPMWSRSAVMVTN | < -0.25
TVD | < -0.25
TVEDAKHFDTHEAIRTWLSQ | < -0.25
TVEGRTVIGDMSIQWC | < -0.25
TVENKPSAGFSVLMT | < -0.25
TVESLVFDHASGGGGLRQVE | < -0.25
TVESSAARRHGVICTDDCLT | < -0.25
TVFESDSTVMKRRT | < -0.25
TVG | < -0.25
TVGCGSLFGQRFGV | < -0.25
TVGNHAWFGRSR | < -0.25
TVGRDVLTLRLTRDQRGWHV | < -0.25
TVHDLDTLAGRWCSGFTETR | < -0.25
TVHGMVRTSLIG | < -0.25
TVIRPIKAMSTGYLRMAGLG | < -0.25
TVKFGLGNPASNMVGRPPSA | < -0.25
TVLKLRRQIPHCPANLHVRH | < -0.25
TVLMEIVYLGTKVWSICSMY | < -0.25
TVLTIVIA | < -0.25
TVNDHSLTFIAFAIGQIYEC | < -0.25
TVNGLCRDQLSPLIIFRTKG | < -0.25
TVPLPSTCFHEQLT | < -0.25

Substance | growth estimate
TVQCCNGESGLQ | < -0.25
TVQFGA | < -0.25
TVQYLFAIDLESGDRAPEHL | < -0.25
TVRFHGLL | < -0.25
TVRG | < -0.25
TVSLREVYRVQNRLPERV | < -0.25
TVSNFVFVIL | < -0.25
TVSSGDGSFEVMSDGR | < -0.25
TVSSGQYFLSNWTARLGP | < -0.25
TVSTGCVLPPNKL | < -0.25
TVSTRGLYSTGQVPCG | < -0.25
TVTPAS | < -0.25
TVTRIAF | < -0.25
TVVCRRA | < -0.25
TVVEFVG | < -0.25
TVWIVGFEHCVAWHVLYYGP | < -0.25
TVWSWLPDPVYRISPGDGYF | < -0.25
TVYSAGSLTRV | < -0.25
TWAEA | < -0.25
TWGMFCPLDG | < -0.25
TWGRYVNM | < -0.25
TWGVTVYGCRPKLRGTRIMC | < -0.25
TWKHRTPPSPLTRMAMDDIS | < -0.25
TWKP | < -0.25
TWQYEFHFATPHAPPADRRP | < -0.25

Substance | growth estimate
TWSK | < -0.25
TWSVEQRVCLFSADRYSAYS | < -0.25
TWSWTPVAT | < -0.25
TWTQSPGNLDFKSARERKSS | < -0.25
TWVRNKQSTTWPRCTSSTVR | < -0.25
TWYDKGSWPRAVYARETLVR | < -0.25
TYAHEAALVHVIWCPVV | < -0.25
TYDIGHLSLGVATLSSSPLG | < -0.25
TYESYYQDPAHTCIVCDPLV | -0.102
TYETRGLETVSVGQDSTWTC | < -0.25
TYGKCMTPRSNSFQLHLGER | < -0.25
TYHGWFAGYSRCER | < -0.25
TYKADGSHRI | < -0.25
TYPLDELDGRIAYRIRLDNI | < -0.25
TYPTHT | < -0.25
TYRHVPAADVATDGQNSLVR | < -0.25
TYSEPIGCFNWKRDGFLYFY | < -0.25
TYVLFKPFIASYRIVRKEAS | < -0.25
VAADQILSPFPSLTFCQKST | < -0.25
VAARRVVPAIVKGATTPLYS | < -0.25
VAASMSEPTPLGRCRHGPPA | < -0.25
VAAVHSH | < -0.25
VACCNGSRLAQPFLAPSIEY | < -0.25
VACRPCANVLEQLASRGVRP | < -0.25
VAEVSYTLLGRDTNLYGNVQ | -0.231

Substance | growth estimate
VAFDIEVRFRKRCL | < -0.25
VAFHAAGQSPAYEPS | < -0.25
VAGAALAFIVRPGRMNASMG | < -0.25
VAGFDLPTVFGMSLNEGLPV | < -0.25
VAGLENTRGLRVDLRHLEGD | < -0.25
VAGPQ | < -0.25
VAICWARTRPSRADLTCPSR | < -0.25
VAIDVGQSCALRGRGEFFGI | < -0.25
VALPMKSCPL | < -0.25
VALQDRYDNCTDRHSLT | < -0.25
VALVEALAYS | < -0.25
VAMTAS | < -0.25
VANHWAYHLGWYWCGGSGAS | < -0.25
VANRQQGREAQSPALSGVPR | < -0.25
VANSDRTLPRDWASAIRQFH | < -0.25
VAQYLSL | < -0.25
VARENVLLPLKRNLLEALNG | < -0.25
VARS | < -0.25
VARSFVSS | < -0.25
VART | < -0.25
VAS | < -0.25
VASGITLVRYRLLYTALSME | < -0.25
VASGSATAGDHARDLLGECG | < -0.25
VASSS | < -0.25
VATALRDRP | < -0.25

In another format: entries from further up
Substance,growth estimate
VALQDRYDNCTDRHSLT,< -0.25
VALVEALAYS,< -0.25

(further entries)

Substance | growth estimate
VATAQ | < -0.25
VATERSLLSSAEIFLLATFD | < -0.25
VATGGFRDIRNANPSSSIVR | < -0.25
VATVLKYEC | < -0.25
VAVNAVPVCIGHLFSVFALL | < -0.25
VAVPDGRACPLKLGSLKSRF | -0.182
VAVSEGQIRPIGPLTCNTSG | < -0.25
VAVWGHL | < -0.25
VCAFVEDGSYDLVVRPQTKY | < -0.25
VCCGYLLRLRAV | < -0.25
VCECIFLCRLEQIPVLIMLS | < -0.25
VCESAIMFERWCYDRSP | < -0.25
VCFKGDDLSARWGD | < -0.25
VCGIRAVPQARARCCLALLK | < -0.25
VCGMLIPICWDSVYSLRSKL | < -0.25
VCGSIFRSVRSQGYTHRRND | < -0.25
VCGSQFAETEKYQAGLG | < -0.25
VCHPGSIGIGSPGIR | < -0.25
VCHR | < -0.25
VCKDGLPLFQGDLRHGCLRG | < -0.25
VCKPAACIKHLGNGILIPAR | < -0.25
VCLTDQVWRL | < -0.25
VCMPQDVRVDFRNFETRGMA | < -0.25
VCNDHVA | < -0.25
VCNVRGGSEKVHP | -0.231

Substance | growth estimate
VCPSKLREGTRGF | < -0.25
VCQCAVSVGGLMQFAASGSG | < -0.25
VCQGLGDRDPIPK | < -0.25
VCQGVVVAQKQDRFATLSKP | < -0.25
VCRARKASLGST | < -0.25
VCRFDYGAHDGTE | < -0.25
VCRHSSSRPGF | < -0.25
VCRSSLSIIVFGGPAYLNRL | -0.246
VCSGKSDQLSTNMSYREARI | < -0.25
VCSIHSDAYLSSRLSNWTRS | < -0.25
VCSLNRTLA | < -0.25
VCSRP | < -0.25
VDAMSQLR | < -0.25
VDASRPGTVWESG | < -0.25
VDDVLEEVTGAY | < -0.25
VDFISMSNPLW | < -0.25
VDGAPEK | < -0.25
VDGILSIAHPVW | < -0.25
VDGTWGVHTVDMSLHRSRST | < -0.25
VDIGSREV | < -0.25
VDKV | -0.248
VDLLSLTRPSILGS | < -0.25
VDLMCCVYF | < -0.25
VDLRTPVLAPTGRGVVCQSQ | < -0.25
VDMQFCEVASCTVPRFMESI | < -0.25

Copied from the list:
Value for VDKV under growth estimate: -0.248
Value for VCRHSSSRPGF under growth estimate: < -0.25
Value for VDGTWGVHTVDMSLHRSRST under growth estimate: < -0.25
Value for VDIGSREV under growth estimate: < -0.25
Value for VCSRP under growth estimate: < -0.25

2 entries from above, in CSV form:
Substance,growth estimate
VDGILSIAHPVW,< -0.25
VDGTWGVHTVDMSLHRSRST,< -0.25

Next part.

Substance | growth estimate
VDTFHSCATPGRGPRHRIHW | < -0.25
VDTGHAGAQTSRIPTDTLSP | < -0.25
VDVCGCTFRADTLCGRTIWG | < -0.25
VDVTGRNAHHPKV | < -0.25
VDVYVATTACEIPSLR | < -0.25
VDWSLGGLLRYRKSQPGPPT | < -0.25
VDYFVGPP | < -0.25
VEAKLCTAYKIGEGRWGCHS | < -0.25
VEDWRTCKNRRFRK | < -0.25
VEFQNVRIRWDAVHCGHASR | < -0.25
VEGSGLQEGGPKLIFSIRG | < -0.25
VEHFH | < -0.25
VEISETLLSNGC | < -0.25
VEKV | < -0.25
VELKN | -0.239
VELKVIFPLTALCCVNGTWN | < -0.25
VELYGKGLIA | < -0.25
VERSRG | < -0.25
VESYITSLYELAISLMADPY | < -0.25
VETLCKYEPHECMCPVVDYW | < -0.25
VETRDFLGDLGSI | < -0.25
VEVLFASVSFQHGELYFFVR | < -0.25
VEVRFFGGAAQLNVL | < -0.25
VEWAALSIRGGLY | < -0.25
VEWGQPAVLPDYSAA | < -0.25

Substance | growth estimate
VEYE | < -0.25
VEYYG | < -0.25
VFDGR | < -0.25
VFEAVYTLTTQGSSGERLEL | < -0.25
VFFL | < -0.25
VFGTRRGKRGNVQCLGNQGE | < -0.25
VFK | < -0.25
VFKGLPSR | -0.236
VFKTHYTNQGCLTFIRSLPD | -0.243
VFPMTQK | < -0.25
VFRARGQR | -0.246
VFSFEPQFSGRALIGWLDLL | < -0.25
VFVVTFELLGNIHRVQRSIG | < -0.25
VGAENRLLSV | < -0.25
VGAFAQRDGPKWCC | < -0.25
VGAGASGMYQP | < -0.25
VGALLGGMGFSSMSHPDFFG | < -0.25
VGARCFCPREGPFNLPVRSK | < -0.25
VGARKGDYGKPRTRQSRSAR | < -0.25
VGAVTRDVLWFCSNRI | < -0.25
VGAYKTSSTPARLVGIPMRS | < -0.25
VGCLPYKVKCSSQTPSRTTC | 0.069
VGDTDLGLSVR | < -0.25
VGE | < -0.25
VGEDNRLFPSAGKFALA | < -0.25
